Results taken from patent publication US20060004002A1 (priority 2004, published 2006).
Structures were worked out from names or drawings and are uncertain.

By UniProt entry, the sequences of proteins in these tests, tags left out. Residues count along the entry.
UniProt P12931, whole entry: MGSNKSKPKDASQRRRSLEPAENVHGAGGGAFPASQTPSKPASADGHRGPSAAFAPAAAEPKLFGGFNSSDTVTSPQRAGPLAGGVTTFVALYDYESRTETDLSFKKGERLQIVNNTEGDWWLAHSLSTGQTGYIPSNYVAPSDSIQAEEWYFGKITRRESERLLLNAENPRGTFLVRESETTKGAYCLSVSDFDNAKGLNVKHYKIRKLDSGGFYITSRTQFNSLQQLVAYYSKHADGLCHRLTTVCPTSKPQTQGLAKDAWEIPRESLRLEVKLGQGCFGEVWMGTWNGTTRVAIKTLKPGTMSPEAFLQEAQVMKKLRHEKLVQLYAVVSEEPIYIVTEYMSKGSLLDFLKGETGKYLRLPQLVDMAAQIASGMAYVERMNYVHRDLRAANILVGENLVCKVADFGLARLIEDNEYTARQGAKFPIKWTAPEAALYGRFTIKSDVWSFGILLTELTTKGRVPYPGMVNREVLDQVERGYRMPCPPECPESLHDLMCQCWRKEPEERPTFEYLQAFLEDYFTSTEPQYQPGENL
UniProt P11362, 22-822 limits assumed: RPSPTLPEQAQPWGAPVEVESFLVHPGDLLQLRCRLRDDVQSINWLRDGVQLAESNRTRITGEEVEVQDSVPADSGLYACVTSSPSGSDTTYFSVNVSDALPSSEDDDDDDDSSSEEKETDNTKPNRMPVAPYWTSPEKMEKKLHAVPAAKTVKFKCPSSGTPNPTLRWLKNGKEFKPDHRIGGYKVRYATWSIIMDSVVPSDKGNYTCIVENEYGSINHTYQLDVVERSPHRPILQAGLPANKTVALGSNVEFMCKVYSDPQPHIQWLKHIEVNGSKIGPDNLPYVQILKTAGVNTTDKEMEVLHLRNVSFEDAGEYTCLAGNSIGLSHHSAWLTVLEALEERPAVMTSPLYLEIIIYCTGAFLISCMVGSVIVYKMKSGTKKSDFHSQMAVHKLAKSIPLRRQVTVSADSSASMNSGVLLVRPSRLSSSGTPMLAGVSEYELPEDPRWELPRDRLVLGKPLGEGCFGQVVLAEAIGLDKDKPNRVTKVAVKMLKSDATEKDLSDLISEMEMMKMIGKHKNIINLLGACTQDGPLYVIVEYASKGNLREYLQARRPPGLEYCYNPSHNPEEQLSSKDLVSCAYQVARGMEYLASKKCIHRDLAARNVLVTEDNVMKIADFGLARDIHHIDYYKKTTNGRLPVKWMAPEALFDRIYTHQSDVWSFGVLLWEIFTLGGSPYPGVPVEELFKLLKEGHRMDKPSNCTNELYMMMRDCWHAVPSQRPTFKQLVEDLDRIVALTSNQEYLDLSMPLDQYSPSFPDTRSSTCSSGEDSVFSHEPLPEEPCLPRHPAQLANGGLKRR

Assays:
Recombinant human Src = Recombinant human Src (Homo sapiens, UniProt P12931); assay: Src tyrosine kinase activity assay with poly E4Y and 32P-ATP; details: read-out: IC50 Value Src, NI = no inhibition
Experimental: (§1) Recombinant human Src was expressed using the baculovirus-insect cell system and purified as published (Budde et al., 1993 and 2000). Recombinant Csk and the FGF receptor (FGFr) were expressed as […] fusion proteins using the pGEX expression vector and E. coli, and purified as described (Sun & Budde, 1995).
(§2) The tyrosine kinase activity of Src, Csk and FGFr was determined using poly E4Y and ^32P-ATP. Briefly, enzymes were assayed in a reaction mixture […] consisting of 0.15 M EPPS-NaOH (pH 8.0) with 6 mM MgCl2, 0.2 mM γ^32P-ATP (0.2-0.4 mCi/μmol), 10% glycerol, 0.1% Triton X-100, and poly E4Y. Poly E4Y is a synthetic peptide whose phosphorylation is measured in this assay by the addition of the radioactively labeled phosphate from the ATP (Budde et al., 1995). For screening assays, 50 μg/ml poly E4Y was used, and for Ki determinations variable concentrations (0, 20, 30, 75, and 150 μg/ml) of poly E4Y were used. When ATP was varied (0, 50, 100 and 250 μM), poly E4Y was kept constant at 150 μg/ml.

FGF receptor (FGFr) = FGF receptor (FGFr) (UniProt P11362); assay: FGFr tyrosine kinase activity assay with poly E4Y and 32P-ATP; details: read-out: IC50 Value FGFr, NI = no inhibition
Experimental: as §1, §2

SMILES: CCOc1ccccc1-c1sc2c(NN=Cc3ccc(-n4ccnc4)cc3)ncnc2c1C#N
- IC50 (Recombinant human Src): 0.01 µM
- IC50 (FGF receptor (FGFr)): 6.2 µM
